The target in the test is Prostate specific antigen (PSA), purified from human seminal fluid (human) (UniProt P07288). Put plainly: competition IFMA, PSA captured by anti-PSA MAb, competitor the corresponding GST-peptide.

The chains behind the UniProt entries cited, without tags or fusion partners. Residues count along the entry.
UniProt P07288, residues 25-261: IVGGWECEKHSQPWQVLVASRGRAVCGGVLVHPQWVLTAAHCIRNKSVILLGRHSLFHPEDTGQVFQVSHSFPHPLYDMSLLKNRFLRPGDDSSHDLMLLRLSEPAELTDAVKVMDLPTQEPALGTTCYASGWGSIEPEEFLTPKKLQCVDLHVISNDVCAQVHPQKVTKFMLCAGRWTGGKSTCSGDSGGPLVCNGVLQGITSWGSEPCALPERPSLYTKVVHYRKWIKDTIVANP

No constants are given. Whether binding was seen depends on the method and setting. Some binding calls cover weakened binding; strength is not graded here.

In the case of CVFTSDYAFC (disulphide bridge Cys1-Cys10) [chemically synthesized peptide A-1 (A-1-1, A-1 parent)], the binding result was “binds”.

The record behind these values is patent US20040106557A1.
